Data: publication PMC12288536, “Development of an atrazine immunoassay based on highly catalytically active Au@PtNPs and specific nanobody” (Research Square, 2025)

Experiment: Spike-recovery of samples determined by dc-ELISA

Which Average recovery (river water, spiked 1 μg/mL) does the source give for CCNc1nc(Cl)nc(NC(C)C)n1 [Atrazine] here?
The Average recovery was 103%.

What about the Found (river water, spiked 1 μg/mL) of the same compound?
Its Found is 1.03 ± 0.023 µg/mL.

And the Average recovery (river water, spiked 5 μg/mL)?
Its Average recovery is 102%.

What about the Found (river water, spiked 5 μg/mL) of the same compound?
Its Found is 5.11 ± 0.043 µg/mL.

And the Average recovery (river water, spiked 10 μg/mL)?
Its Average recovery is 100%.

And the Found (river water, spiked 10 μg/mL)?
Its Found is 10.0 ± 0.034 µg/mL.

What about the Average recovery (soil, spiked 1 μg/mL) of the same compound?
The Average recovery was 114%.

And the Found (soil, spiked 1 μg/mL)?
The Found was 1.14 ± 0.047 µg/mL.

And the Average recovery (soil, spiked 5 μg/mL)?
The Average recovery was 99.4%.

And the Found (soil, spiked 5 μg/mL)?
Its Found is 4.97 ± 0.049 µg/mL.

And the Average recovery (soil, spiked 10 μg/mL)?
Its Average recovery is 101%.

What about the Found (soil, spiked 10 μg/mL) of the same compound?
Its Found is 10.1 ± 0.030 µg/mL.

And the Average recovery (tap water, spiked 1 μg/mL)?
Its Average recovery is 98.2%.

What about the Found (tap water, spiked 1 μg/mL) of the same compound?
Its Found is 0.982 ± 0.034 µg/mL.

What about the Average recovery (tap water, spiked 5 μg/mL) of the same compound?
The Average recovery was 97.4%.

What about the Found (tap water, spiked 5 μg/mL) of the same compound?
Its Found is 4.87 ± 0.045 µg/mL.

What about the Average recovery (tap water, spiked 10 μg/mL) of the same compound?
Its Average recovery is 99.1%.

What about the Found (tap water, spiked 10 μg/mL) of the same compound?
Its Found is 9.91 ± 0.037 µg/mL.
